Experimental findings from paper PMC7944388 are described below.

Protein sequences, listed by entry. Tags and fused reporters are not part of them. Lines headed by an entry give the natural chain unless they say otherwise; changes in a name come on top. Chains listed by the source or under a name are the forms on record and can include a tag or linker. Residues count along the entry.
UniProt P07237: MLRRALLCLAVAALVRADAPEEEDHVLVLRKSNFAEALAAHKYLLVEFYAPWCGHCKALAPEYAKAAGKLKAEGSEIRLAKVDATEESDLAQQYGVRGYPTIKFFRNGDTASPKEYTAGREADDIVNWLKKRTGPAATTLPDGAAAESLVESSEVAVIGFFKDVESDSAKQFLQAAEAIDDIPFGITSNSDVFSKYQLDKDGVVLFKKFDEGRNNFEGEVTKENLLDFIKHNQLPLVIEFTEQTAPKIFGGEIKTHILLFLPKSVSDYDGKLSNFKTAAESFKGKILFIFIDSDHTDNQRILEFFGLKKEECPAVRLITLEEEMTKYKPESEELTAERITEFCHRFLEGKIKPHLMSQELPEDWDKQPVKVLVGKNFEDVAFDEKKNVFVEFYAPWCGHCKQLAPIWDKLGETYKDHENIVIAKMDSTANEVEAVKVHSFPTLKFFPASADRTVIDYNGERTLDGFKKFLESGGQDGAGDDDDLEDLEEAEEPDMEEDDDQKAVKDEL
Flag-tagged P4HB truncated mutant, first domain a (aa 1-138): residues 18-138 of P07237
UniProt P09103, residues 20-509: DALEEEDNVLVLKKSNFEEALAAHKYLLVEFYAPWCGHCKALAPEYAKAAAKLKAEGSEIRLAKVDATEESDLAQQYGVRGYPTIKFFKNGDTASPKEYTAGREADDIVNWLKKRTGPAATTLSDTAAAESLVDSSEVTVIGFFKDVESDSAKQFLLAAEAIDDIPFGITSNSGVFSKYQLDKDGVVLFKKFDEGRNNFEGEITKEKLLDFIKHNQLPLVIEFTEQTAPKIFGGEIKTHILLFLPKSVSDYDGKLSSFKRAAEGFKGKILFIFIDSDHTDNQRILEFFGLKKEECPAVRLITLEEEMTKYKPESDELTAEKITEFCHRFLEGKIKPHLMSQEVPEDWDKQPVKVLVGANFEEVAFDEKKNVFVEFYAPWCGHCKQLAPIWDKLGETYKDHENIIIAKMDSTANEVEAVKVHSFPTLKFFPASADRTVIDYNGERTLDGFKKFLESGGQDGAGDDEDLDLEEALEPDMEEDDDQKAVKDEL
UniProt P10415: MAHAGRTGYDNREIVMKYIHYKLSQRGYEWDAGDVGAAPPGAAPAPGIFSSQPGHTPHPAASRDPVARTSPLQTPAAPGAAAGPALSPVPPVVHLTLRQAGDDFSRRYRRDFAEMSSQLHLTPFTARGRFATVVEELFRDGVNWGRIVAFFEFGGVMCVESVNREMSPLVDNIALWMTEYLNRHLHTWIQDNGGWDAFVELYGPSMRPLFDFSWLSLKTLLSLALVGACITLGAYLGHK

Results are given in words; binding and its absence hold for the method and conditions named. In cells and extracts the contact can be indirect. Some results given as binding are weak or reduced against the parent protein; the word gives no strength. For part of these data: Sequences can lack the tags named with a protein.

The target in test [1] is T1, V5-PHGDH (UniProt O43175).
T1 sequence: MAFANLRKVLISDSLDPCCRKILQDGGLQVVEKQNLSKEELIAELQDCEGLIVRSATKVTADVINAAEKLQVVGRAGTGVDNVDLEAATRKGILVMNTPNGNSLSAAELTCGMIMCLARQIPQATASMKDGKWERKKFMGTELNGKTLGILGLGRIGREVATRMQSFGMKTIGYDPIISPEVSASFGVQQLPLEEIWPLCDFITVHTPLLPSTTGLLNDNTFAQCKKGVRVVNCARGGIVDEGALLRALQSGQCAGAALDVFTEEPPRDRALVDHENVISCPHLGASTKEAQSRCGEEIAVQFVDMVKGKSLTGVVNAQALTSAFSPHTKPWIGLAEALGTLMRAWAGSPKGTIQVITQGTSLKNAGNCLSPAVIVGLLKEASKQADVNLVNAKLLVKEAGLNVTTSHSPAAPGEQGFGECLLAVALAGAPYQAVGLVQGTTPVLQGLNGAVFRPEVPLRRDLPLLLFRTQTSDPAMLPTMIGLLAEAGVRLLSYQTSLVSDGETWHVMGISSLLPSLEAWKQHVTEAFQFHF
The test is described as follows: co-IP; 293T cells transfected with V5-PHGDH, precipitated with anti-V5 antibody, endogenous Bcl-2 blotted.

The target of test [2] is T2, phosphoglycerate dehydrogenase (PHGDH), endogenous (mouse (endogenous in GA muscle and C2C12)) (UniProt Q61753).
T2 sequence: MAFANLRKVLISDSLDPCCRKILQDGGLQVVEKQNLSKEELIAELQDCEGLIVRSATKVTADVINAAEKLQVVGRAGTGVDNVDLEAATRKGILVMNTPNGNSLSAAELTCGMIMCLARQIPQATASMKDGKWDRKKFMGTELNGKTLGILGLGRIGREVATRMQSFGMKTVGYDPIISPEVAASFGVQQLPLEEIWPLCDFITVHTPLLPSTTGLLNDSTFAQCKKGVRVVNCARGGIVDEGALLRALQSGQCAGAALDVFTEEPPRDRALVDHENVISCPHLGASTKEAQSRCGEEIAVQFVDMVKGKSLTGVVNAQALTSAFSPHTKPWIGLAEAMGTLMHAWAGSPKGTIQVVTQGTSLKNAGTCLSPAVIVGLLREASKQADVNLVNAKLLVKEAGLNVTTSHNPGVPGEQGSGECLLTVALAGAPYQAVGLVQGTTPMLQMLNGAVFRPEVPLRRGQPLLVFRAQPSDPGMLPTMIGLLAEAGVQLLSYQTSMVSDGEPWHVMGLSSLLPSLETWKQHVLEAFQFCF
The test is described as follows: co-IP; C2C12 myoblasts transfected with Flag-P4HB, precipitated with anti-PHGDH antibody, Flag tag blotted.

Test [3] addresses T3, GST-PHGDH fusion protein (UniProt O43175).
T3 sequence: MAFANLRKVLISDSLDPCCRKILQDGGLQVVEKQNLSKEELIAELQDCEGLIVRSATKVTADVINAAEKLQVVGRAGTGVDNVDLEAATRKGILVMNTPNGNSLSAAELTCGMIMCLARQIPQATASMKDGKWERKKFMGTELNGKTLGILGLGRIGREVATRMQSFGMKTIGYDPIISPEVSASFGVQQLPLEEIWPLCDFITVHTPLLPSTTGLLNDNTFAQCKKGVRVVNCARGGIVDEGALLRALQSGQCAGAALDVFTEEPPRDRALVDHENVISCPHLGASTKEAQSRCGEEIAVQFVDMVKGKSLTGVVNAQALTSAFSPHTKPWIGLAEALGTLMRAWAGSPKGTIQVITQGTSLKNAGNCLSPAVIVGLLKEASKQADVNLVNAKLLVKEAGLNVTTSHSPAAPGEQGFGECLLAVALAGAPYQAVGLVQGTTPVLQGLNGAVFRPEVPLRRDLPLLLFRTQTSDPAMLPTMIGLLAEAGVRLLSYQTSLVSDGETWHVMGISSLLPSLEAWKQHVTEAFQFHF
Put plainly: pull-down; extracted Flag-P4HB protein incubated with GST or GST-PHGDH fusion protein and glutathione Sepharose beads at 4°C overnight; blot with P4HB antibody; only the target purified.

The target of test [4] is Flag-P4HB (full-length coding region of P4HB with triple flag tags at the C-terminus) (UniProt P07237). Put plainly: co-IP; C2C12 myoblasts transfected with control vector, Flag-tagged wild type or truncated mutants of P4HB; anti-FLAG M2 Magnetic Beads; PHGDH blotted.
In test [5] the target is Flag-tagged P4HB truncated mutant, first domain a (aa 1-138) (UniProt P07237). The description is as above.
The target in test [6] is prolyl 4-hydroxylase subunit beta (P4HB), endogenous (mouse (endogenous in GA muscle and C2C12)) (UniProt P09103). The test is described as follows: co-IP; C2C12 myoblast lysate, both endogenous, precipitated with anti-P4HB antibody, PHGDH blotted; IgG control; lysis buffer pH 7.6, 150 mM NaCl, 0.8% NP-40, 4°C overnight.

For “Bcl-2, endogenous (from UniProt P10415 1-239)”, the binding entry in test [1] was “binds”.

In the case of “Flag-P4HB (full-length coding region of P4HB with triple flag tags at the C-terminus) (from UniProt P07237 18-508)”, the binding result in test [2] and in test [3] was “binds” in each case.

B1: phosphoglycerate dehydrogenase (PHGDH), endogenous (protein, UniProt Q61753 1-533)
chain: MAFANLRKVLISDSLDPCCRKILQDGGLQVVEKQNLSKEELIAELQDCEGLIVRSATKVTADVINAAEKLQVVGRAGTGVDNVDLEAATRKGILVMNTPNGNSLSAAELTCGMIMCLARQIPQATASMKDGKWDRKKFMGTELNGKTLGILGLGRIGREVATRMQSFGMKTVGYDPIISPEVAASFGVQQLPLEEIWPLCDFITVHTPLLPSTTGLLNDSTFAQCKKGVRVVNCARGGIVDEGALLRALQSGQCAGAALDVFTEEPPRDRALVDHENVISCPHLGASTKEAQSRCGEEIAVQFVDMVKGKSLTGVVNAQALTSAFSPHTKPWIGLAEAMGTLMHAWAGSPKGTIQVVTQGTSLKNAGTCLSPAVIVGLLREASKQADVNLVNAKLLVKEAGLNVTTSHNPGVPGEQGSGECLLTVALAGAPYQAVGLVQGTTPMLQMLNGAVFRPEVPLRRGQPLLVFRAQPSDPGMLPTMIGLLAEAGVQLLSYQTSMVSDGEPWHVMGLSSLLPSLETWKQHVLEAFQFCF
In the case of B1, the binding entry in test [4], in test [5] and in test [6] was “binds” in each case.
